The subject of the data set is BAF complex subunits and histone proteins. Briefly: Mass spectrometry proteomics of purified HA-SS18 WT and HA-SS18-SSX1 complexes (Tables 5A-5E). On the set-up: species or system human. The settings on record: HEK-293T; for Total (total peptides) / Unique (unique peptides): HA-SS18SSX1 purification, NE (soluble nuclear extract) fraction, peptides per identified protein.

Where [1] appears, read: HA-SS18WT_NE_peptides: HA-SS18 WT complexes purified from nuclear extract (NE), label = protein identified (Gene Symbol).
[2] abbreviates: HA-SS18WT_NE_peptides: proteins co-purified with HA-SS18 WT from nuclear extract (NE).

B1: COQ8B (protein, UniProt Q96D53 1-544, looked up)
Atypical kinase COQ8B, …: MWLKVGGLLRGTGGQLGQTVGWPCGALGPGPHRWGPCGGSWAQKFYQDGPGRGLGEEDIRRAREARPRKTPRPQLSDRSRERKVPASRISRLANFGGLAVGLGLGVLAEMAKKSMPGGRLQSEGGSGLDSSPFLSEANAERIVQTLCTVRGAALKVGQMLSIQDNSFISPQLQHIFERVRQSADFMPRWQMLRVLEEELGRDWQAKVASLEEVPFAAASIGQVHQGLLRDGTEVAVKIQYPGIAQSIQSDVQNLLAVLKMSAALPAGLFAEQSLQALQQELAWECDYRREAACAQNFRQLLANDPFFRVPAVVKELCTTRVLGMELAGGVPLDQCQGLSQDLRNQICFQLLTLCLRELFEFRFMQTDPNWANFLYDASSHQVTLLDFGASREFGTEFTDHYIEVVKAAADGDRDCVLQKSRDLKFLTGFETKAFSDAHVEAVMILGEPFATQGPYDFGSGETARRIQDLIPVLLRHRLCPPPEETYALHRKLAGAFLACAHLRAHIACRDLFQDTYHRYWASRQPDAATAGSLPTKGDSWVDPS
Consider B1, for which the “Total (total peptides)” value is on record as 3 and the “Unique (unique peptides)” value is reported as 3. For the same molecule, under setting [1], the “Total (peptides)” value came out at 4 and the “Unique (peptides)” value was determined as 4.

B2: GTPBP6 (protein, UniProt O43824 1-516, looked up)
Putative GTP-binding protein 6: MWALRAAVRPGLRLSRVGRGRSAPRAAAPSCPARALAAVGRRSPGNLEGPWGGGRGLRADGGRSRTGDDEEEPEDADENAEEELLRGEPLLPAGTQRVCLVHPDVKWGPGKSQMTRAEWQVAEATALVHTLDGWSVVQTMVVSTKTPDRKLIFGKGNFEHLTEKIRGSPDITCVFLNVERMAAPTKKELEAAWGVEVFDRFTVVLHIFRCNARTKEARLQVALAEMPLHRSNLKRDVAHLYRGVGSRYIMGSGESFMQLQQRLLREKEAKIRKALDRLRKKRHLLRRQRTRREFPVISVVGYTNCGKTTLIKALTGDAAIQPRDQLFATLDVTAHAGTLPSRMTVLYVDTIGFLSQLPHGLIESFSATLEDVAHSDLILHVRDVSHPEAELQKCSVLSTLRGLQLPAPLLDSMVEVHNKVDLVPGYSPTEPNVVPVSALRGHGLQELKAELDAAVLKATGRQILTLRVRLAGAQLSWLYKEATVQEVDVIPEDGAADVRVIISNSAYGKFRKLFPG
With B2, the “Total (total peptides)” value is on record as 3 and the “Unique (unique peptides)” value is 3. Also, under setting [1], the “Total (peptides)” value is on record as 3 and the “Unique (peptides)” value is 3.

B3: AUP1 (protein, UniProt Q9Y679 1-410, looked up)
Lipid droplet-regulating VLDL …: MELPSGPGPERLFDSHRLPGDCFLLLVLLLYAPVGFCLLVLRLFLGIHVFLVSCALPDSVLRRFVVRTMCAVLGLVARQEDSGLRDHSVRVLISNHVTPFDHNIVNLLTTCSTPLLNSPPSFVCWSRGFMEMNGRGELVESLKRFCASTRLPPTPLLLFPEEEATNGREGLLRFSSWPFSIQDVVQPLTLQVQRPLVSVTVSDASWVSELLWSLFVPFTVYQVRWLRPVHRQLGEANEEFALRVQQLVAKELGQTGTRLTPADKAEHMKRQRHPRLRPQSAQSSFPPSPGPSPDVQLATLAQRVKEVLPHVPLGVIQRDLAKTGCVDLTITNLLEGAVAFMPEDITKGTQSLPTASASKFPSSGPVTPQPTALTFAKSSWARQESLQERKQALYEYARRRFTERRAQEAD
B3: the “Total (total peptides)” value stood at 3 and the “Unique (unique peptides)” value is listed as 3. Moreover, under setting [2], the “Total (peptides)” value is 1 and the “Unique (peptides)” value was 1.

B4: ABCD3 (protein, UniProt P28288 1-659, looked up)
ATP-binding cassette …: MAAFSKYLTARNSSLAGAAFLLLCLLHKRRRALGLHGKKSGKPPLQNNEKEGKKERAVVDKVFFSRLIQILKIMVPRTFCKETGYLVLIAVMLVSRTYCDVWMIQNGTLIESGIIGRSRKDFKRYLLNFIAAMPLISLVNNFLKYGLNELKLCFRVRLTKYLYEEYLQAFTYYKMGNLDNRIANPDQLLTQDVEKFCNSVVDLYSNLSKPFLDIVLYIFKLTSAIGAQGPASMMAYLVVSGLFLTRLRRPIGKMTITEQKYEGEYRYVNSRLITNSEEIAFYNGNKREKQTVHSVFRKLVEHLHNFILFRFSMGFIDSIIAKYLATVVGYLVVSRPFLDLSHPRHLKSTHSELLEDYYQSGRMLLRMSQALGRIVLAGREMTRLAGFTARITELMQVLKDLNHGKYERTMVSQQEKGIEGVQVIPLIPGAGEIIIADNIIKFDHVPLATPNGDVLIRDLNFEVRSGANVLICGPNGCGKSSLFRVLGELWPLFGGRLTKPERGKLFYVPQRPYMTLGTLRDQVIYPDGREDQKRKGISDLVLKEYLDNVQLGHILEREGGWDSVQDWMDVLSGGEKQRMAMARLFYHKPQFAILDECTSAVSVDVEGYIYSHCRKVGITLFTVSHRKSLWKHHEYYLHMDGRGNYEFKQITEDTVEFGS
Take B4: the “Total (total peptides)” value came out at 3 and the “Unique (unique peptides)” value stood at 3. Moreover, under setting [1], the “Total (peptides)” value was determined as 3 and the “Unique (peptides)” value amounted to 3.

B5: SSR1 (protein, UniProt P43307 19-286, looked up)
Translocon-associated protein …: VLFRGGPRGLLAVAQDLTEDEETVEDSIIEDEDDEAEVEEDEPTDLVEDKEEEDVSGEPEASPSADTTILFVKGEDFPANNIVKFLVGFTNKGTEDFIVESLDASFRYPQDYQFYIQNFTALPLNTVVPPQRQATFEYSFIPAEPMGGRPFGLVINLNYKDLNGNVFQDAVFNQTVTVIEREDGLDGETIFMYMFLAGLGLLVIVGLHQLLESRKRKRPIQKVEMGTSSQNDVDMSWIPQETLNQINKASPRRLPRKRAQKRSVGSDE
Turning to B5, the “Total (total peptides)” value was 3 and the “Unique (unique peptides)” value amounted to 3. Besides, under setting [1], the “Total (peptides)” value is 3 and the “Unique (peptides)” value is recorded as 3.

B6: GTPBP2 (protein, UniProt Q9BX10 1-602, looked up)
GTP-binding protein 2: MDSRVSELFGGCCRPGGGPAVGGTLKARGAGSSSGCGGPKGKKKNGRNRGGKANNPPYLPPEAEDGNIEYKLKLVNPSQYRFEHLVTQMKWRLQEGRGEAVYQIGVEDNGLLVGLAEEEMRASLKTLHRMAEKVGADITVLREREVDYDSDMPRKITEVLVRKVPDNQQFLDLRVAVLGNVDSGKSTLLGVLTQGELDNGRGRARLNLFRHLHEIQSGRTSSISFEILGFNSKGEVVNYSDSRTAEEICESSSKMITFIDLAGHHKYLHTTIFGLTSYCPDCALLLVSANTGIAGTTREHLGLALALKVPFFIVVSKIDLCAKTTVERTVRQLERVLKQPGCHKVPMLVTSEDDAVTAAQQFAQSPNVTPIFTLSSVSGESLDLLKVFLNILPPLTNSKEQEELMQQLTEFQVDEIYTVPEVGTVVGGTLSSGICREGDQLVVGPTDDGCFLELRVCSIQRNRSACRVLRAGQAATLALGDFDRALLRKGMVMVSPEMNPTICSVFEAEIVLLFHATTFRRGFQVTVHVGNVRQTAVVEKIHAKDKLRTGEKAVVRFRFLKHPEYLKVGAKLLFREGVTKGIGHVTDVQAITAGEAQANMGF
Turning to B6, the “Total (total peptides)” value was determined as 3 and the “Unique (unique peptides)” value was found to be 3. Besides, under setting [1], the “Total (peptides)” value amounted to 3 and the “Unique (peptides)” value is given as 3.

B7: PYCR1 (protein, UniProt P32322 2-319, looked up)
Pyrroline-5-carboxylate …: SVGFIGAGQLAFALAKGFTAAGVLAAHKIMASSPDMDLATVSALRKMGVKLTPHNKETVQHSDVLFLAVKPHIIPFILDEIGADIEDRHIVVSCAAGVTISSIEKKLSAFRPAPRVIRCMTNTPVVVREGATVYATGTHAQVEDGRLMEQLLSSVGFCTEVEEDLIDAVTGLSGSGPAYAFTALDALADGGVKMGLPRRLAVRLGAQALLGAAKMLLHSEQHPGQLKDNVSSPGGATIHALHVLESGGFRSLLINAVEASCIRTRELQSMADQEQVSPAAIKKTILDKVKLDSPAGTALSPSGHTKLLPRSLAPAGKD
As for B7, the “Total (total peptides)” value came to 3 and the “Unique (unique peptides)” value is given as 3. Moreover, under setting [2], the “Total (peptides)” value is given as 1 and the “Unique (peptides)” value is 1.

B8: TMED10 (protein, UniProt P49755 32-219, looked up)
Transmembrane emp24 …: ISFHLPINSRKCLREEIHKDLLVTGAYEISDQSGGAGGLRSHLKITDSAGHILYSKEDATKGKFAFTTEDYDMFEVCFESKGTGRIPDQLVILDMKHGVEAKNYEEIAKVEKLKPLEVELRRLEDLSESIVNDFAYMKKREEEMRDTNESTNTRVLYFSIFSMFCLIGLATWQVFYLRRFFKAKKLIE
On to B8, for which the “Total (total peptides)” value was determined as 3 and the “Unique (unique peptides)” value stood at 3. In addition, under setting [2], the “Total (peptides)” value is given as 2 and the “Unique (peptides)” value came to 2.

B9: COPG1 (protein, UniProt Q9Y678 1-874, looked up)
Coatomer subunit gamma-1: MLKKFDKKDEESGGGSNPFQHLEKSAVLQEARVFNETPINPRKCAHILTKILYLINQGEHLGTTEATEAFFAMTKLFQSNDPTLRRMCYLTIKEMSCIAEDVIIVTSSLTKDMTGKEDNYRGPAVRALCQITDSTMLQAIERYMKQAIVDKVPSVSSSALVSSLHLLKCSFDVVKRWVNEAQEAASSDNIMVQYHALGLLYHVRKNDRLAVNKMISKVTRHGLKSPFAYCMMIRVASKQLEEEDGSRDSPLFDFIESCLRNKHEMVVYEAASAIVNLPGCSAKELAPAVSVLQLFCSSPKAALRYAAVRTLNKVAMKHPSAVTACNLDLENLVTDSNRSIATLAITTLLKTGSESSIDRLMKQISSFMSEISDEFKVVVVQAISALCQKYPRKHAVLMNFLFTMLREEGGFEYKRAIVDCIISIIEENSESKETGLSHLCEFIEDCEFTVLATRILHLLGQEGPKTTNPSKYIRFIYNRVVLEHEEVRAGAVSALAKFGAQNEEMLPSILVLLKRCVMDDDNEVRDRATFYLNVLEQKQKALNAGYILNGLTVSIPGLERALQQYTLEPSEKPFDLKSVPLATAPMAEQRTESTPITAVKQPEKVAATRQEIFQEQLAAVPEFRGLGPLFKSSPEPVALTESETEYVIRCTKHTFTNHMVFQFDCTNTLNDQTLENVTVQMEPTEAYEVLCYVPARSLPYNQPGTCYTLVALPKEDPTAVACTFSCMMKFTVKDCDPTTGETDDEGYEDEYVLEDLEVTVADHIQKVMKLNFEAAWDEVGDEFEKEETFTLSTIKTLEEAVGNIVKFLGMHPCERSDKVPDNKNTHTLLLAGVFRGGHDILVRSRLLLLDTVTMQVTARSLEELPVDIILASVG
Take B9: the “Total (total peptides)” value was determined as 3 and the “Unique (unique peptides)” value was determined as 3. Further, under setting [1], the “Total (peptides)” value came out at 3 and the “Unique (peptides)” value came to 3.

B10: GCDH (protein, UniProt Q92947 45-438, looked up)
Glutaryl-CoA dehydrogenase, …: RPEFDWQDPLVLEEQLTTDEILIRDTFRTYCQERLMPRILLANRNEVFHREIISEMGELGVLGPTIKGYGCAGVSSVAYGLLARELERVDSGYRSAMSVQSSLVMHPIYAYGSEEQRQKYLPQLAKGELLGCFGLTEPNSGSDPSSMETRAHYNSSNKSYTLNGTKTWITNSPMADLFVVWARCEDGCIRGFLLEKGMRGLSAPRIQGKFSLRASATGMIIMDGVEVPEENVLPGASSLGGPFGCLNNARYGIAWGVLGASEFCLHTARQYALDRMQFGVPLARNQLIQKKLADMLTEITLGLHACLQLGRLKDQDKAAPEMVSLLKRNNCGKALDIARQARDMLGGNGISDEYHVIRHAMNLEAVNTYEGTHDIHALILGRAITGIQAFTASK
As for B10, the “Total (total peptides)” value was 3 and the “Unique (unique peptides)” value was found to be 3. Also, under setting [1], the “Total (peptides)” value is given as 4 and the “Unique (peptides)” value is recorded as 4.

The values above are taken from patent US20250283871A1, “COMPOSITIONS AND METHODS FOR MODULATING THE INTERACTION BETWEEN SS18-SSX FUSION ONCOPROTEIN AND NUCLEOSOMES” (Dana-Farber Cancer Institute, Inc., priority 2020, published 2025).
